PubChem BioAssay AID1159597, NIAID, 2016
Screen: 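Role of canonical TLR signalling genes in the human macrophage LPS response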. Cell system: human THP-1 B5 reporter clone (monocytic leukaemia line), PMA-differentiated to macrophage-like cells. Reagent: single siRNA against human genes. Time to read-out: LPS for 4 h before read-out; assayed 48 to 72 h after siRNA transfection. Treatment: LPS (Salmonella minnesota R595) for 4 h; concentration not given. Measurement: 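After 4 h LPS, firefly TNF promoter luciferase over renilla, as a plate median/MAD robust z-score averaged across replicates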. Scale: TNF reporter z-score: higher = stronger TNF promoter activity after LPS. Active means: In these data the active calls have TNF reporter z-score, replicate mean at about -1.5 or lower, or at about 1.53 or higher. Calls: active = clear shift in reporter, either direction; inactive = little shift in reporter.
The whole screen tested 756 reagents; shown is an unselected part. Over the whole deposit, 140 (19%) were called active. 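Calls mark clear shifts in either direction, lowered or raised; calls are per siRNA, gene-level medians over six siRNAs not deposited.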 Reagents against one gene are numbered here. Reagent sequences are not shown. The record does not give: the amount of reagent.

no.	gene knocked down	siRNA no.	TNF reporter z-score, replicate mean	Outcome
1	NFKBIB (NFKB inhibitor beta)	1	-1.04	inactive
2	NFKBIB (NFKB inhibitor beta)	2	-0.31	inactive
3	NFKBIB (NFKB inhibitor beta)	3	0.0338	inactive
4	NFKBIB (NFKB inhibitor beta)	4	-1.66	active
5	NFKBIB (NFKB inhibitor beta)	5	-0.327	inactive
6	NFKBIB (NFKB inhibitor beta)	6	-0.607	inactive
7	TICAM2 (TIR domain containing adaptor molecule 2)	1	-1.42	inactive
8	TICAM2 (TIR domain containing adaptor molecule 2)	2	-1.41	inactive
9	TICAM2 (TIR domain containing adaptor molecule 2)	3	-1.33	inactive
10	TICAM2 (TIR domain containing adaptor molecule 2)	4	0.943	inactive
11	TICAM2 (TIR domain containing adaptor molecule 2)	5	-1.69	active
12	TICAM2 (TIR domain containing adaptor molecule 2)	6	-0.919	inactive
13	ETS1 (ETS proto-oncogene 1, transcription factor)	1	-0.124	inactive
14	ETS1 (ETS proto-oncogene 1, transcription factor)	2	-1.74	active
15	ETS1 (ETS proto-oncogene 1, transcription factor)	3	-0.415	inactive
16	ETS1 (ETS proto-oncogene 1, transcription factor)	4	-0.544	inactive
17	ETS1 (ETS proto-oncogene 1, transcription factor)	5	0.946	inactive
18	ETS1 (ETS proto-oncogene 1, transcription factor)	6	-1.32	inactive

Entries listed above with an active call:
gene knocked down	siRNA no.	TNF reporter z-score, replicate mean	Outcome
NFKBIB (NFKB inhibitor beta)	4	-1.66	active
TICAM2 (TIR domain containing adaptor molecule 2)	5	-1.69	active
ETS1 (ETS proto-oncogene 1, transcription factor)	2	-1.74	active

Continued:
no.	gene knocked down	siRNA no.	TNF reporter z-score, replicate mean	Outcome
19	TBK1 (TANK binding kinase 1)	1	-1.11	inactive
20	TBK1 (TANK binding kinase 1)	2	0.22	inactive
21	TBK1 (TANK binding kinase 1)	3	0.151	inactive
22	TBK1 (TANK binding kinase 1)	4	0.923	inactive
23	TBK1 (TANK binding kinase 1)	5	-0.00024	inactive
24	TBK1 (TANK binding kinase 1)	6	-0.32	inactive
25	BTK (Bruton tyrosine kinase)	1	-0.262	inactive
26	BTK (Bruton tyrosine kinase)	2	0.0985	inactive
27	BTK (Bruton tyrosine kinase)	3	0.424	inactive
28	BTK (Bruton tyrosine kinase)	4	-0.699	inactive
29	BTK (Bruton tyrosine kinase)	5	1.17	inactive
30	BTK (Bruton tyrosine kinase)	6	0.451	inactive
31	RAC1 (Rac family small GTPase 1)	1	-0.374	inactive
32	RAC1 (Rac family small GTPase 1)	2	0.589	inactive
33	RAC1 (Rac family small GTPase 1)	3	-0.461	inactive
34	RAC1 (Rac family small GTPase 1)	4	-0.327	inactive
35	RAC1 (Rac family small GTPase 1)	5	1.15	inactive
36	RAC1 (Rac family small GTPase 1)	6	-0.841	inactive
37	RIPK1 (receptor interacting serine/threonine kinase 1)	1	0.384	inactive
38	RIPK1 (receptor interacting serine/threonine kinase 1)	2	1.2	inactive
39	RIPK1 (receptor interacting serine/threonine kinase 1)	3	0.558	inactive
40	RIPK1 (receptor interacting serine/threonine kinase 1)	4	-1.17	inactive
41	RIPK1 (receptor interacting serine/threonine kinase 1)	5	-0.501	inactive
42	RIPK1 (receptor interacting serine/threonine kinase 1)	6	-1.56	active
43	IRAK2 (interleukin 1 receptor associated kinase 2)	1	-0.418	inactive
44	IRAK2 (interleukin 1 receptor associated kinase 2)	2	1.97	active
45	IRAK2 (interleukin 1 receptor associated kinase 2)	3	-0.0728	inactive
46	IRAK2 (interleukin 1 receptor associated kinase 2)	4	0.265	inactive
47	IRAK2 (interleukin 1 receptor associated kinase 2)	5	-0.206	inactive
48	IRAK2 (interleukin 1 receptor associated kinase 2)	6	1.34	inactive
